# Results as given in the supplement of paper PMC8728848.
# This is one part of the list.
# Experiments:
# Assay in all cases: glycan array binding signal (z-score within array); higher = stronger binding
# Details in all cases: glycan notation: IUPAC condensed, linker removed
# [1] = molecular target: Fuc(a1-2)Gal(b1-4)GlcNAc(b1-3)Gal(b1-4)GlcNAc(b1-2)Man(a1-3)[Fuc(a1-2)Gal(b1-4)GlcNAc(b1-3)Gal(b1-4)GlcNAc(b1-2)Man(a1-6)]Man(b1-4)GlcNAc(b1-4)GlcNAc
# Method in brief: (§1)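 Negative Z-scores can be read as non-binding. The Z-score is calculated within each array and then averaged across arrays of one protein sequence at different concentrations or buffers and across linkers. Arrays, 3228 in all, were curated from the Consortium for Functional Glycomics database and kept only where the protein sequence was available.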
# [2] = molecular target: Fuc(a1-2)Gal(b1-4)GlcNAc(b1-3)Gal(b1-4)GlcNAc(b1-3)Gal(b1-4)GlcNAc
# Method in brief: as §1
# [3] = molecular target: Fuc(a1-2)Gal(b1-4)GlcNAc(b1-3)GalNAc
# Method in brief: as §1
# [4] = molecular target: Fuc(a1-2)Gal(b1-4)GlcNAc(b1-3)[Fuc(a1-2)Gal(b1-4)GlcNAc(b1-6)]GalNAc
# Method in brief: as §1
# [5] = molecular target: Fuc(a1-2)Gal(b1-4)GlcNAc(b1-3)[Fuc(a1-3)[Gal(b1-4)]GlcNAc(b1-6)]Gal(b1-4)Glc
# Method in brief: as §1
# [6] = molecular target: Fuc(a1-2)Gal(b1-4)GlcNAc(b1-6)GalNAc
# Method in brief: as §1
# [7] = molecular target: Fuc(a1-2)Gal(b1-4)GlcNAc6S
# Method in brief: as §1
# [8] = molecular target: Fuc(a1-2)Gal(b1-4)[Fuc(a1-3)]GlcNAc
# Method in brief: as §1
# [9] = molecular target: Fuc(a1-2)Gal(b1-4)[Fuc(a1-3)]GlcNAc(b1-2)Man(a1-3)[Fuc(a1-2)Gal(b1-4)[Fuc(a1-3)]GlcNAc(b1-2)Man(a1-6)]Man(b1-4)GlcNAc(b1-4)[Fuc(a1-6)]GlcNAc
# Method in brief: as §1
# [10] = molecular target: Fuc(a1-2)Gal(b1-4)[Fuc(a1-3)]GlcNAc(b1-2)[Fuc(a1-2)Gal(b1-4)[Fuc(a1-3)]GlcNAc(b1-4)]Man(a1-3)[Fuc(a1-2)Gal(b1-4)[Fuc(a1-3)]GlcNAc(b1-2)Man(a1-6)]Man(b1-4)GlcNAc(b1-4)GlcNAc
# Method in brief: as §1
# [11] = molecular target: Fuc(a1-2)Gal(b1-4)[Fuc(a1-3)]GlcNAc(b1-3)Gal(b1-4)[Fuc(a1-3)]GlcNAc
# Method in brief: as §1
# [12] = molecular target: Fuc(a1-2)Gal(b1-4)[Fuc(a1-3)]GlcNAc(b1-3)Gal(b1-4)[Fuc(a1-3)]GlcNAc(b1-3)Gal(b1-4)[Fuc(a1-3)]GlcNAc
# Method in brief: as §1
# [13] = molecular target: Fuc(a1-2)Gal(b1-4)[Fuc(a1-3)]GlcNAc(b1-3)GalNAc
# Method in brief: as §1
# [14] = molecular target: Fuc(a1-2)Gal(b1-4)[Fuc(a1-3)]GlcNAc(b1-3)[Neu5Ac(a2-6)Gal(b1-4)GlcNAc(b1-6)]Gal(b1-4)Glc
# Method in brief: as §1
# [15] = molecular target: Fuc(a1-2)Gal3S(b1-4)GlcNAc
# Method in brief: as §1
# [16] = molecular target: Fuc(a1-2)Gal6S(b1-3)GlcNAc
# Method in brief: as §1
# [17] = molecular target: Fuc(a1-2)Gal6S(b1-3)GlcNAc6S
# Method in brief: as §1
# [18] = molecular target: Fuc(a1-2)Gal6S(b1-4)Glc
# Method in brief: as §1
# [19] = molecular target: Fuc(a1-2)Gal6S(b1-4)Glc6S
# Method in brief: as §1
# [20] = molecular target: Fuc(a1-2)[Gal(a1-3)]Gal
# Method in brief: as §1
# [21] = molecular target: Fuc(a1-2)[Gal(a1-3)]Gal(b1-3)GalNAc
# Method in brief: as §1
# [22] = molecular target: Fuc(a1-2)[Gal(a1-3)]Gal(b1-3)GalNAc(b1-3)Gal(a1-4)Gal(b1-4)Glc
# Method in brief: as §1
# [23] = molecular target: Fuc(a1-2)[Gal(a1-3)]Gal(b1-3)GlcNAc
# Method in brief: as §1
# [24] = molecular target: Fuc(a1-2)[Gal(a1-3)]Gal(b1-3)GlcNAc(b1-2)Man(a1-3)[Fuc(a1-2)[Gal(a1-3)]Gal(b1-3)GlcNAc(b1-2)Man(a1-6)]Man(b1-4)GlcNAc(b1-4)GlcNAc
# Method in brief: as §1
# [25] = molecular target: Fuc(a1-2)[Gal(a1-3)]Gal(b1-3)GlcNAc(b1-2)Man(a1-3)[Fuc(a1-2)[Gal(a1-3)]Gal(b1-3)GlcNAc(b1-2)Man(a1-6)]Man(b1-4)GlcNAc(b1-4)[Fuc(a1-6)]GlcNAc
# Method in brief: as §1
# [26] = molecular target: Fuc(a1-2)[Gal(a1-3)]Gal(b1-3)GlcNAc(b1-3)GalNAc
# Method in brief: as §1
# [27] = molecular target: Fuc(a1-2)[Gal(a1-3)]Gal(b1-3)GlcNAc(b1-6)GalNAc
# Method in brief: as §1
# [28] = molecular target: Fuc(a1-2)[Gal(a1-3)]Gal(b1-4)Glc
# Method in brief: as §1
# [29] = molecular target: Fuc(a1-2)[Gal(a1-3)]Gal(b1-4)GlcNAc
# Method in brief: as §1
# [30] = molecular target: Fuc(a1-2)[Gal(a1-3)]Gal(b1-4)GlcNAc(b1-2)Man
# Method in brief: as §1
# [31] = molecular target: Fuc(a1-2)[Gal(a1-3)]Gal(b1-4)GlcNAc(b1-2)Man(a1-3)[Fuc(a1-2)[Gal(a1-3)]Gal(b1-4)GlcNAc(b1-2)Man(a1-6)]Man(b1-4)GlcNAc(b1-4)GlcNAc
# Method in brief: as §1
# [32] = molecular target: Fuc(a1-2)[Gal(a1-3)]Gal(b1-4)GlcNAc(b1-2)Man(a1-3)[Fuc(a1-2)[Gal(a1-3)]Gal(b1-4)GlcNAc(b1-2)Man(a1-6)]Man(b1-4)GlcNAc(b1-4)[Fuc(a1-6)]GlcNAc
# Method in brief: as §1
# [33] = molecular target: Fuc(a1-2)[Gal(a1-3)]Gal(b1-4)GlcNAc(b1-3)GalNAc
# Method in brief: as §1
# [34] = molecular target: Fuc(a1-2)[Gal(a1-3)]Gal(b1-4)GlcNAc(b1-6)GalNAc
# Method in brief: as §1
# [35] = molecular target: Fuc(a1-2)[Gal(a1-3)]Gal(b1-4)[Fuc(a1-3)]Glc
# Method in brief: as §1
# [36] = molecular target: Fuc(a1-2)[Gal(a1-3)]Gal(b1-4)[Fuc(a1-3)]GlcNAc
# Method in brief: as §1
# [37] = molecular target: Fuc(a1-2)[Gal(a1-3)]Gal(b1-4)[Fuc(a1-3)]GlcNAc(b1-3)GalNAc
# Method in brief: as §1
# [38] = molecular target: Fuc(a1-2)[Gal(a1-4)]Gal(b1-4)GlcNAc
# Method in brief: as §1
# [39] = molecular target: Fuc(a1-2)[GalNAc(a1-3)]Gal
# Method in brief: as §1
# [40] = molecular target: Fuc(a1-2)[GalNAc(a1-3)]Gal(b1-3)GalNAc(a1-3)[Fuc(a1-2)]Gal(b1-4)GlcNAc
# Method in brief: as §1
# [41] = molecular target: Fuc(a1-2)[GalNAc(a1-3)]Gal(b1-3)GalNAc(b1-3)Gal(a1-4)Gal(b1-4)Glc
# Method in brief: as §1
# [42] = molecular target: Fuc(a1-2)[GalNAc(a1-3)]Gal(b1-3)GlcNAc
# Method in brief: as §1
# [43] = molecular target: Fuc(a1-2)[GalNAc(a1-3)]Gal(b1-3)GlcNAc(b1-2)Man(a1-3)[Fuc(a1-2)[GalNAc(a1-3)]Gal(b1-3)GlcNAc(b1-2)Man(a1-6)]Man(b1-4)GlcNAc(b1-4)GlcNAc
# Method in brief: as §1
# [44] = molecular target: Fuc(a1-2)[GalNAc(a1-3)]Gal(b1-3)GlcNAc(b1-2)Man(a1-3)[Fuc(a1-2)[GalNAc(a1-3)]Gal(b1-3)GlcNAc(b1-2)Man(a1-6)]Man(b1-4)GlcNAc(b1-4)[Fuc(a1-6)]GlcNAc
# Method in brief: as §1
# [45] = molecular target: Fuc(a1-2)[GalNAc(a1-3)]Gal(b1-3)GlcNAc(b1-3)GalNAc
# Method in brief: as §1
binder,measurement,setting,value
"HopZSSI-T (Helicobacter pylori), B5Z6D0 (protein) MGSSHHHHHHSSGLVPRGSHMENLYFQGEDNGFFISAGYQIGEAAQMVKNTGELKKLSDTYENLSNLLTNFNNLNQAVTNASSPSEINAAIDNLKANTQGLTGEKTNSPAYQAVYLALNAAVGLWNVIAYNVQCGPGNSSQQSVTFEGQPGHNSSSINCNLTGYNNGVSGPLSIDNFKQLNQAYQVLQQALKQGVPVLNNTNQKIEVKVTTQTNGQSSKETTTTTTTNDAQTLLQEASKMIDVLTTNCPWVNHNPGQNGGAPWGLIRQECVSGFATEFSAVTSMIKNAQEIVTQAQSLNANQNNQNAPQDFNPYTSADRAFAQNMLNHAQAQAKILELADQMKKDLNTIPSQFITNYLAACRIDGTTPSQGVTNNTWGAGCAYVEETITALNNSLAHFGTQAEQIKQSELLARTILDFRGSLSTLNSTYNSITTTASNTPNSPFLKNLISQSTNPNNPGGLQAVYQVNQSAYSQLLSATQELGHNPFRRIGLISSQT",glycan array binding signal (z-score),[1],0.473
same,glycan array binding signal (z-score),[2],1.29
same,glycan array binding signal (z-score),[3],-0.672
same,glycan array binding signal (z-score),[4],0.122
same,glycan array binding signal (z-score),[5],0.537
same,glycan array binding signal (z-score),[6],0.509
same,glycan array binding signal (z-score),[7],0.416
same,glycan array binding signal (z-score),[8],-0.221
same,glycan array binding signal (z-score),[9],1.17
same,glycan array binding signal (z-score),[10],1.05
same,glycan array binding signal (z-score),[11],0.227
same,glycan array binding signal (z-score),[12],0.188
same,glycan array binding signal (z-score),[13],0.139
same,glycan array binding signal (z-score),[14],-0.243
same,glycan array binding signal (z-score),[15],-0.691
same,glycan array binding signal (z-score),[16],-0.147
same,glycan array binding signal (z-score),[17],0.184
same,glycan array binding signal (z-score),[18],-0.444
same,glycan array binding signal (z-score),[19],-0.497
same,glycan array binding signal (z-score),[20],-0.342
same,glycan array binding signal (z-score),[21],0.252
same,glycan array binding signal (z-score),[22],0.585
same,glycan array binding signal (z-score),[23],0.455
same,glycan array binding signal (z-score),[24],-0.111
same,glycan array binding signal (z-score),[25],-0.261
same,glycan array binding signal (z-score),[26],-0.21
same,glycan array binding signal (z-score),[27],-0.366
same,glycan array binding signal (z-score),[28],-0.624
same,glycan array binding signal (z-score),[29],-0.478
same,glycan array binding signal (z-score),[30],-0.277
same,glycan array binding signal (z-score),[31],-0.08
same,glycan array binding signal (z-score),[32],-0.217
same,glycan array binding signal (z-score),[33],-0.158
same,glycan array binding signal (z-score),[34],-0.49
same,glycan array binding signal (z-score),[35],-0.716
same,glycan array binding signal (z-score),[36],0.174
same,glycan array binding signal (z-score),[37],-0.229
same,glycan array binding signal (z-score),[38],0.215
same,glycan array binding signal (z-score),[39],-0.229
same,glycan array binding signal (z-score),[40],-0.494
same,glycan array binding signal (z-score),[41],0.142
same,glycan array binding signal (z-score),[42],-0.52
same,glycan array binding signal (z-score),[43],-0.326
same,glycan array binding signal (z-score),[44],-0.463
same,glycan array binding signal (z-score),[45],0.065

# An excerpt from further up:
binder,measurement,setting,value
"HopZSSI-T (Helicobacter pylori), B5Z6D0 (protein) MGSSHHHHHHSSGLVPRGSHMENLYFQGEDNGFFISAGYQIGEAAQMVKNTGELKKLSDTYENLSNLLTNFNNLNQAVTNASSPSEINAAIDNLKANTQGLTGEKTNSPAYQAVYLALNAAVGLWNVIAYNVQCGPGNSSQQSVTFEGQPGHNSSSINCNLTGYNNGVSGPLSIDNFKQLNQAYQVLQQALKQGVPVLNNTNQKIEVKVTTQTNGQSSKETTTTTTTNDAQTLLQEASKMIDVLTTNCPWVNHNPGQNGGAPWGLIRQECVSGFATEFSAVTSMIKNAQEIVTQAQSLNANQNNQNAPQDFNPYTSADRAFAQNMLNHAQAQAKILELADQMKKDLNTIPSQFITNYLAACRIDGTTPSQGVTNNTWGAGCAYVEETITALNNSLAHFGTQAEQIKQSELLARTILDFRGSLSTLNSTYNSITTTASNTPNSPFLKNLISQSTNPNNPGGLQAVYQVNQSAYSQLLSATQELGHNPFRRIGLISSQT",glycan array binding signal (z-score),[11],0.227
same,glycan array binding signal (z-score),[12],0.188
same,glycan array binding signal (z-score),[13],0.139
same,glycan array binding signal (z-score),[14],-0.243
same,glycan array binding signal (z-score),[15],-0.691
same,glycan array binding signal (z-score),[16],-0.147
same,glycan array binding signal (z-score),[17],0.184
same,glycan array binding signal (z-score),[18],-0.444
same,glycan array binding signal (z-score),[19],-0.497
same,glycan array binding signal (z-score),[20],-0.342
same,glycan array binding signal (z-score),[21],0.252
same,glycan array binding signal (z-score),[22],0.585
